Measured values: PubChem BioAssay AID1508600 (Functional Genomics Laboratory (NCATS/FGL), 2020)
About 3,700 (7%) of roughly 53,000 sequences were called active.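 How the source made its calls: active means gene knockdowns whose robust z-score for IL-1 alpha signal is at least 2 or at most -2, so actives lie on both sides; inactive means the rest.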 The list shows a part of the results.

assay: Components of the Cytosolic LPS Sensing Pathway: Gene Identification via Genome-wide siRNA Screen; settings: RAW264.7 macrophages, IL-1a HTRF, actives lie on both sides, screened at 100 nM (by protocol), cells primed 5 h with Pam3CSK4 first;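 further: robust z of the log signal after scaling to non-targeting control siRNA wells of the plate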
Method in brief: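 Mouse macrophage line RAW264.7 is transfected with siRNA (100 nM final), grown 48h, primed with TLR ligand Pam3CSK4 5 h and given intracellular LipidA 24 h. IL-1a in supernatant is read by HTRF and viability by luminescence.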

Sequence | z-score
GGCAAUACGUAACAUGCCATT against Slc6a4 | inactive: -0.148
GGGUGGGUUUGAGGUGUCUTT against Set | inactive: 1.51
GGUCUUCGACACCAUUAACTT against Wipi2 | inactive: 0.947
GGCUUAAAAUAAAAGUGCCTT against Nans | inactive: 0.175
CCCAGCACAAGUGUAAGAUTT against Fzd10 | inactive: 0.184
GGUACUACAAGAGAAAAGATT against Hdhd2 | inactive: -0.958
GCUGAAAAACAAGACUUCGTT against Gabrg1 | inactive: 0.993
GGCUCACAUCUCCUUACAUTT against Klrg1 | inactive: 0.979
GGUGAUGAGCAGAAUCCAGTT against Ercc6l | inactive: 0.105
CCACGAGCAUUGAAAACCUTT against Dmbx1 | inactive: -1.31
GGGUCAUUGCUUAGAAACATT against Tcta | inactive: -1.82
GGACAAGGCCACUUAAAUCTT against Hoxc8 | inactive: -0.0614
GGUGAAAUACGAUUAUGAUTT against Galnt12 | inactive: -1.39
CCCAUAAUCUCCGAUAUCATT against Hsf1 | inactive: 0.292
CCAGUGUUUGACUUGACCATT against Dpysl3 | inactive: 0.228
CCAUCAUACGAUGAUCUUATT against Pmaip1 | inactive: -0.696
CGAUUACUGAACACUAUAUTT against Metap1 | inactive: 1.94
GCGGCUUAGUCCAUCAGGATT against Aplf | inactive: 0.819
GGUACAAUCCCAGAUUUGATT against Smc3 | active: -2.37
GGCAAAGAAGGAUUCCUGCTT against Nkx3-2 | inactive: 0.524
CCGCUACAGGUUUACCAAGTT against Rhox8 | inactive: 0.129
GGCUUCAUGAUGUCCUGCATT against Cdk5 | inactive: -0.0138

Sequence | z-score
GGCAAUAAGCCCUUCACAATT against Slc66a1 | inactive: -0.541
CCUUCUAUGGCCUUCUGAATT against Hapln4 | inactive: 0.419
GGUUUGAUCACCUUAUUCUTT against Zfp750 | inactive: -0.226
GCAUCACUUGGGUGGACAATT against Olfr1280 | inactive: 0.736
GGAAGAUCAAAAGGUCAUUTT against Mybl2 | inactive: -0.76
GGCAAACCAGGAAAAGGUCTT against Abhd2 | active: -2.33
GGUUCACUGUUACACUCUGTT against Cdk17 | inactive: -1.61
CCACUGAGUUCUUUCUACUTT against Olfr49 | inactive: -0.957
CCAUACCAAUGAAUGCCUCTT against Fas | inactive: -1.4
GCAAUAAAGAGUUCUGGCUTT against Cmtm2a | inactive: -0.0256
GGCCUAUAUUGAUGAUUUUTT against 4930503L19Rik | active: 2.31
GCAGGAAUAUACGAAUCACTT against Tmprss12 | inactive: 0.0172
GGAACAAAUCGCUCUGUUGTT against Olfr1314 | inactive: -1.61
CGAAAACAGUACGAUGCUUTT against Dnajb11 | inactive: 1.03
GGCGCAACGAAUAAAAAUATT against D630023F18Rik | inactive: -0.581
GGCGAUCAUAAACAGCAAUTT against Smyd3 | inactive: -1.19
GAUGGACAAUCUCAUGGAUTT against Pcp2 | inactive: 0.932
GGUCCUACUGAAAACGCAUTT against Tmem229b | inactive: -1.79
GCGGCUAUGUUACAGGAGCTT against Prmt5 | inactive: -0.493
GGUGAAGCAUCAGUGACAATT against Ubxn4 | inactive: 0.734
GCUAAUUGUUCACUAAAGGTT against 1700029H14Rik | inactive: 0.655
CCCUGUGACUCCAAAAUGATT against Dbh | inactive: -1.01

Sequence | z-score
GGCCAGGAUAGCACUUCUUTT against Arsb | inactive: -0.358
CCAAGCAUUACAGAAACCATT against Olfr1148 | inactive: -0.917
GGCCGAAAAUUUGUUUGUATT against Pcdhga9 | inactive: 0.349
GCAUUGUAAAGUUUGUACATT against Dnaja2 | inactive: 1.68
GGCUUGCCAUCGUAAAUCCTT against 1700019M22Rik | inactive: -1.69
GGCAAAUAUUUCCAAGUACTT against Cpq | inactive: -1.57
GCUAUUUAGUUAGUUGUGUTT against Acbd3 | inactive: 0.334
GGGACUAGAUCAUUUUCUGTT against D630028G08Rik | inactive: 0.675
GGGUGCUAAAUCUUUUUGATT against Ccnf | inactive: 1
GGAUCCUCGGGAGUACAUGTT against Crybg3 | inactive: 0.287
CCCUGUCACAACAUUCUCATT against Olfr1426 | inactive: -0.289
GGCAUUGGUUCCUACAAGATT against Gm773 | inactive: -0.118
GGCUUACCUGUACAUUGAUTT against Sptlc3 | inactive: -0.558
GCCAACAAGUUUAUCACUATT against Hoxb13 | inactive: -1.23
GGAGGAAAAGUCUUGUAGUTT against Armcx1 | inactive: 0.296
GGAUGUUUUAACUUGGAAATT against Sema5a | active: 2.25
GGUAUAAAAUGGAAAACUCTT against Lpar4 | inactive: 1.42
GCAUGCGCCCUAAAGGAAATT against Zmynd15 | inactive: 0.687
GGAUCCCUCAUUCGUCCCUTT against D430018E03Rik | inactive: 0.23
GCUCCAAUCGGUGAUGUCUTT against Pla2g7 | inactive: -1.69
GCCCAACCCGAUUUGCAGATT against Cyp4a10 | inactive: -1.24
CCGGCUGUACAAAGAGAAUTT against Rnf34 | inactive: 0.132

Part of the list above, as labelled records.
GGAUGUUUUAACUUGGAAATT against Sema5a
  z-score: active: 2.25
GGUAUAAAAUGGAAAACUCTT against Lpar4
  z-score: inactive: 1.42
GCAUGCGCCCUAAAGGAAATT against Zmynd15
  z-score: inactive: 0.687
GGAUCCCUCAUUCGUCCCUTT against D430018E03Rik
  z-score: inactive: 0.23

Continued:

Sequence | z-score
GGCUACAGUGCUUCAAAAUTT against Ttc24 | inactive: -0.293
CGUGAUGUGGGAAAUGGCATT against Avpr2 | inactive: -1.23
GGUCACUUUAGAUUUUGAATT against Stard13 | inactive: -0.987
GGAAAAGGAAAGCUUUAGUTT against Fut4 | inactive: 0.632
CCAACAAUGUUUAAAGGAUTT against Olfr476 | inactive: -0.32
GGGCAGUGAGAAGAGAUUCTT against H2-Q1 | inactive: 0.421
GGCUUCGUAGCUUUACAAATT against Abca6 | inactive: -0.846
CGCACACGAUGUGGAAAUGTT against Ptger1 | inactive: -0.0322
GUAAUUCACAGCCUCUCCGTT against Pitx3 | inactive: 1.03
GCCAUAGCGAUCACUACUGTT against Spi1 | inactive: -1.07
CCUUGUCAAUCAUUAUCUGTT against Olfr923 | inactive: 0.118
GGCUUCUCUCUAUGUAUUCTT against Tas2r116 | inactive: -0.441
CGGCAUCAUAUUGUGCGAATT against Cnn3 | inactive: 1.37
CGAGGAGAUAUCCAUCAAUTT against Nbr1 | inactive: -1.02
GGAAGUGGUUGCUAAGCGATT against Prkn | inactive: 0.0765
CGGUCCUUGAAAGAGAUGGTT against Prkcsh | inactive: 0.315
CCUUAGAGAAAAUUAUUGCTT against Hgf | inactive: 0.315
GGGAGAGCUGCUGUUUUUCTT against Rxfp3 | inactive: 1.46
GGAAGUAGCAACAAGCUACTT against Brd2 | inactive: 0.824
CCGACUGCUUAAUUACAAGTT against Efcab9 | inactive: 0.703
GCAUGAAUCCAGCUCGAUCTT against Aqp4 | inactive: -0.375
GGAGUUUGUAUCAAACUUATT against Zcchc8 | inactive: 0.0121

Sequence | z-score
GGUGGAAGCAAUUUUAAAUTT against Trpc7 | inactive: 0.384
GGGAAGAGCCCUAAUAUUATT against Aldh1a2 | inactive: -0.098
GGAGAAAACUCUAAAUAACTT against Klra2 | inactive: -0.35
GGUUCAGUCCUUCUUAACATT against Fam114a1 | inactive: -1.5
GCGGCAUCUAAAGCUCCACTT against Cdh1 | inactive: -0.313
GCAUCCUACGCAUUAAAUCTT against Olfr146 | inactive: -1.17
GCACAACGUAAAAACAUCATT against Enox2 | inactive: 0.112
CGAGCAGACCUCUAUACAGTT against Nit2 | inactive: -1.55
GGGUCUGAAUGACAGCAUCTT against Cd53 | inactive: 1.04
GGUAACAUACUAAAAGAAGTT against Vmn2r10 | inactive: -1.21
GGAAGCAGCUACUGGAAGATT against Cyth4 | inactive: -0.732
CCUUCAAUGAGAGCUUUAGTT against Olfr1157 | inactive: 0.797
GGAUCUUCAAUUCGUUGGUTT against Cachd1 | active: 2.75
GGCUUCACCAAAUGUGCAGTT against Mrpl50 | inactive: -0.768
GCACAUCAGUACAUUUCACTT against Agap1 | inactive: -0.0313
CCUUGCUGUCAUUUUGCUUTT against Tsr3 | inactive: 0.96
GCCUAACUGCCCAGAAUCUTT against Psd4 | inactive: 0.207
CGGAUGAAUUUGAUGGUCUTT against Ctbp2 | inactive: -0.872
